Results are given as percent effect. How 0% and 100% were set is not recorded. Most values in the screen are low, and negative values occur. This is an unselected part of the compounds tested. A dash means the value is not listed here; it may have been measured.

Mtb growth Cornell: 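Whole-cell assay for inhibitors of Mycobacterium tuberculosis growth, labelled Cornell in the record; the read-out is not stated. The concentration is filed as 10 mM, unlikely as a test dose, so the dose is not known. The record gives no direction; compounds strong in two other growth screens of this library score well above the rest, so higher reads as stronger inhibition. Of about 53,000 compounds tested this way, about 900 (1.7%) reached 50% or more in at least one test.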
Mtb heat-shock: 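Assay on Mycobacterium tuberculosis, filed only as a heat shock assay from Cornell; the read-out is not stated. The concentration is filed as 10 mM, unlikely as a test dose, so the dose is not known. Higher reads as stronger inhibition (inferred: compounds with an IC50 in retests scored well above the rest). Of about 69,000 compounds tested this way, about 930 (1.4%) reached 50% or more in at least one test.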

| Compound | Mtb growth Cornell | Mtb heat-shock |
|---|---|---|
| `CCC(=O)Nc1ccc(C(C)Nc2nc3c(cnn3C)c(=O)[nH]2)cc1` (stereo not given) | 16.12 | 4.128 |
| `COc1cc(F)ccc1-c1nc2c([nH]1)c(C1CC1)nn2C` | 18.58 | -22.47 |
| `CC(C)[C@H]1COC(=O)N1Cc1nncn1C(C)C` | 24.78 | -18.87 |
| `O=C(NCCCc1ccc(O)cc1)C1(O)Cc2ccccc2C1` | - | 1.635 |
| `Cc1cnc(N2CCCC3(COCCN(c4ccc(C)nn4)C3)C2)nc1` (stereo not given) | 7.243 | -19.08 |
| `CN(Cc1ccco1)Cc1ccccc1CNC(=O)c1ccc[nH]1` | - | 13.89 |
| `O=C(NCCc1cc(N2CCOCC2)nc(N2CCCC2)n1)C1CC1` | 50.32 | 0.1625 |
| `CSc1ccc(NC(=O)Nc2ccc3c(c2)N(S(C)(=O)=O)CC3)cc1` | 14.47 | -14 |
| `N#CC1COCCN1S(=O)(=O)c1ccc(F)c(Br)c1` (stereo not given) | -40.68 | -2.092 |
| `CCCc1nc(C(=O)N2CCn3nc(C(=O)OC)cc3C2)cs1` | -5.195 | 2.286 |
| `Cc1c(C2SCC(=O)Nc3c2c(O)nn3C(C)C)cnn1C` (stereo not given) | 1.266 | -3.144 |
| `COc1ccccc1CCNC(=O)N1CCC(n2cncn2)CC1` | -2.245 | 5.644 |
| `CCN1CCC(CC(=O)N[C@H](C(=O)O)c2cccc(F)c2F)CC1` | - | -18.85 |
| `CC(=O)N1CC(C)CN(C(=O)c2cscn2)c2ccccc21` (stereo not given) | 10.09 | 3.433 |
| `Cl.Cl.Cn1cnc2c(N3CCOCC3)nc(C3CCNCC3)cc21` | -10.97 | -59.09 |
| `Cc1ccccc1-n1cc(-c2ccnc(N[C@@H](CO)C(C)C)n2)cn1` | 28.83 | 0.5054 |
| `Cc1cc(NCC(C)C)ccc1C(=O)N(C)C` | -28.41 | -26.05 |
| `CCOC1COC2(CCN(C(=O)c3cccc(C)n3)CC2)C1.O=C(O)C(F)(F)F` (stereo not given) | -4.346 | 18.32 |
| `Cc1cc(C)nc(N2CCC(C(=O)O)(n3ccc(C(C)(C)C)n3)CC2)n1` | 67 | -29.52 |
| `Cc1cccc(OCCNC(=O)C(C)S(=O)(=O)c2ccccn2)c1` (stereo not given) | -20.35 | -20.04 |
| `CC(Cc1cccs1)C(=O)NCc1cccc(N2CCCC2=O)c1` (stereo not given) | 1.909 | 16.99 |
| `CCc1nc(CN(C(C)=O)C2CCN(CCc3ccccn3)C2)no1` (stereo not given) | - | 49.37 |
| `CCc1oc(C(=O)NCCSc2ncn[nH]2)cc1CN1CCCC1` | 3.779 | 3.219 |
| `Cc1oc(C(=O)O)cc1S(=O)(=O)Nc1c(F)cccc1-n1cccn1` | 14.25 | -1.896 |
| `[H][C@@]12CCN(C(=O)c3cccnc3OC)C[C@@]1([H])O[C@@H](c1noc(C)n1)C2` | -4.062 | -29.59 |
| `CCC(NC(=O)c1cc(NC(C)=O)ccc1Cl)c1cc(C)ccn1` (stereo not given) | 16.98 | -0.8469 |
| `O=C(O)CSc1nnc(-c2ccn[nH]2)n1-c1ccccc1C(F)(F)F` | 10.47 | 3.725 |
| `Nc1c(N2CCCCC2)ncnc1N1CCOCC1` | 7.155 | -10.23 |
| `CC(C)[C@@H]1CN(S(=O)(=O)Cc2ccccc2)C[C@H]1C(=O)O` | - | -8.106 |
| `O=C(CCc1ccccc1Br)NS(=O)(=O)c1ccc2c(c1)OCCO2` | 17.72 | 6.065 |
| `CC(Cn1cccn1)NC(=O)N1CCN(Cc2cccnc2)CC1` (stereo not given) | 1.658 | 3.048 |
| `CC1(C)OCC(CNC(=O)c2cnn(-c3ccc(Cl)cc3)c2N)O1` (stereo not given) | - | -29.36 |
| `CCCc1cc(C(=O)N[C@H](C)[C@@H](O)c2ccc(O)cc2)n(C)n1` | - | -14.13 |
| `Cc1c(C(=O)N2CCOCC2)nnn1-c1ccc2ncccc2c1` | 13.43 | -17.46 |
| `Cc1cc(N2CCC(NC(=O)C3CC3)CC2)nc(-c2ccncc2)n1` | 20.44 | 37.5 |
| `O=C(c1ccc(COc2ccc(Cl)cc2)o1)N1N=CCC1(O)C(F)(F)F` (stereo not given) | 61.62 | 45.02 |
| `Cc1ccc(C(NC(=O)CN2CCc3cncnc3C2)C2CC2)cc1` (stereo not given) | - | 16.72 |
| `O=C(c1cncc(N2CCCC3(CCNCC3)CC2)n1)N1CCCCC1` | -45.95 | 6.565 |
| `Clc1snnc1CN1CCCC1Cn1cccn1` (stereo not given) | - | 1.009 |
| `Cc1nc(O)c2nnn(C[C@H]3CCCN3C(=O)c3cccs3)c2n1` | 25.51 | -1.168 |
| `CSCC(C)C(=O)NCc1c(C)nc2cc(=O)[nH]n2c1C` (stereo not given) | 4.806 | 9.376 |
| `[H][C@]12CN(CCCc3cccnc3)CC[C@@]1(O)CCN(S(=O)(=O)N(C)C)C2` | 16.76 | -3.252 |

For reference, 5 entries once more:

* CC(C)[C@H]1COC(=O)N1Cc1nncn1C(C)C | Mtb growth Cornell: 24.78%; Mtb heat-shock: -18.87%
* [H][C@]12CN(CCCc3cccnc3)CC[C@@]1(O)CCN(S(=O)(=O)N(C)C)C2 | Mtb growth Cornell: 16.76%; Mtb heat-shock: -3.252%
* Cc1cccc(OCCNC(=O)C(C)S(=O)(=O)c2ccccn2)c1 (stereo not given) | Mtb growth Cornell: -20.35%; Mtb heat-shock: -20.04%
* Cl.Cl.Cn1cnc2c(N3CCOCC3)nc(C3CCNCC3)cc21 | Mtb growth Cornell: -10.97%; Mtb heat-shock: -59.09%
* Cc1cc(N2CCC(NC(=O)C3CC3)CC2)nc(-c2ccncc2)n1 | Mtb growth Cornell: 20.44%; Mtb heat-shock: 37.5%

The values are deposited in ChEMBL (CHEMBL3988442, “University of Dundee, Small-Polar-MMV Screening Library” (2021)).